From publication PMC5287475
No constants are given. Whether binding was seen depends on the method and setting. Binding seen in cells or lysates may run through a third protein.

The chains behind the UniProt entries cited, without tags or fusion partners.
UniProt P25440: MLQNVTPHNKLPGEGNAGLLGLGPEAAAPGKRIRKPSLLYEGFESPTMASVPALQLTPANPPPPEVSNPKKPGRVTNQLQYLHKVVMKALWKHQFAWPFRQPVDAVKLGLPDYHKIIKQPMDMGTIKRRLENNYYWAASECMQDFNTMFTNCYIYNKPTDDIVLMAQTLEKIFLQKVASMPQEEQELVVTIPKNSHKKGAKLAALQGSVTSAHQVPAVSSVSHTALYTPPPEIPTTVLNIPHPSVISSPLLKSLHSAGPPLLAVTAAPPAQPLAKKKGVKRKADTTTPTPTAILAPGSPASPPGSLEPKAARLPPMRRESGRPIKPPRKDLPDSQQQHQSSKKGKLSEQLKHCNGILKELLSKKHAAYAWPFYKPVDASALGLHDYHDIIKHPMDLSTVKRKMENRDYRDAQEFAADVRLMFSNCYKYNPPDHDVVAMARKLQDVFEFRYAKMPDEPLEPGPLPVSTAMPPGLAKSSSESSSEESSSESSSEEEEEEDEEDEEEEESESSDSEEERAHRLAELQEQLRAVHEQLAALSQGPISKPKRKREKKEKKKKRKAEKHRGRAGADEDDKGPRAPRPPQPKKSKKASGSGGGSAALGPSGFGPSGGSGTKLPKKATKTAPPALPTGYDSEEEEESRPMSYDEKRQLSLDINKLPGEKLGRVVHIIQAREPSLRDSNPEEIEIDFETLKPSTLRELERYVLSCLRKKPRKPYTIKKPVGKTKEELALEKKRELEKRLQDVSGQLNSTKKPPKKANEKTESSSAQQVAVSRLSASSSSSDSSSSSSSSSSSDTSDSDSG

Target: BRD2 (endogenous) (human (endogenous in BCBL1)) (UniProt P25440)
Test: co-IP; endogenous proteins of BCBL1 cells treated with DMSO or JQ1 for 1 hr; IP with antibody to RAD21, BRD2, BRD4 or IgG; Western blot for RAD21, BRD4, BRD2, SMC1 or LANA

B1: cohesin subunit RAD21 (endogenous) (protein, UniProt O60216 1-631)
chain: MFYAHFVLSKRGPLAKIWLAAHWDKKLTKAHVFECNLESSVESIISPKVKMALRTSGHLLLGVVRIYHRKAKYLLADCNEAFIKIKMAFRPGVVDLPEENREAAYNAITLPEEFHDFDQPLPDLDDIDVAQQFSLNQSRVEEITMREEVGNISILQENDFGDFGMDDREIMREGSAFEDDDMLVSTTTSNLLLESEQSTSNLNEKINHLEYEDQYKDDNFGEGNDGGILDDKLISNNDGGIFDDPPALSEAGVMLPEQPAHDDMDEDDNVSMGGPDSPDSVDPVEPMPTMTDQTTLVPNEEEAFALEPIDITVKETKAKRKRKLIVDSVKELDSKTIRAQLSDYSDIVTTLDLAPPTKKLMMWKETGGVEKLFSLPAQPLWNNRLLKLFTRCLTPLVPEDLRKRRKGGEADNLDEFLKEFENPEVPREDQQQQHQQRDVIDEPIIEEPSRLQESVMEASRTNIDESAMPPPPPQGVKRKAGQIDPEPVMPPQQVEQMEIPPVELPPEEPPNICQLIPELELLPEKEKEKEKEKEDDEEEEDEDASGGDQDQEERRWNKRTQQMLHGLQRALAKTGAESISLLELCRNTNRKQAAAKFYSFLVLKKQQAIELTQEEPYSDIIATPGPRFHII
binding: no binding
